Measurements reported in publication PMC5465499.
Results are given in words; binding and its absence hold for the method and conditions named. Binding seen in cells or lysates may run through a third protein. Some results given as binding are weak or reduced against the parent protein; the word gives no strength.

Sequences of proteins named here, by UniProt entry; tags and fusion partners are left off. A change or cut given only in a name is not applied to a line headed by its entry. A line that says so, or that is headed by a name, gives the form on record, which may keep a tag or linker. Residues count along the entry.
UniProt Q9EP80: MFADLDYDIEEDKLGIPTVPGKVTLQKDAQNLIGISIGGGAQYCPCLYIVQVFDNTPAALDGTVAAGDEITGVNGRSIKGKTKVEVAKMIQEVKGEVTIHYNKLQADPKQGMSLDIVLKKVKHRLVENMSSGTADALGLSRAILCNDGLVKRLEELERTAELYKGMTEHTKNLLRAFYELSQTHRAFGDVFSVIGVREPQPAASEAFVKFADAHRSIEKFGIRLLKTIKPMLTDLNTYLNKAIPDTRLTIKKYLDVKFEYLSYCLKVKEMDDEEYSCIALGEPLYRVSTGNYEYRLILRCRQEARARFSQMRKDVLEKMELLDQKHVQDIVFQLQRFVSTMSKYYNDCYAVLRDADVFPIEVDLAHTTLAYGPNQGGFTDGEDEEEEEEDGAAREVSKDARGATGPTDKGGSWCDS
FLAG-PICK1 Δ380–390 (Q9EP80, form named): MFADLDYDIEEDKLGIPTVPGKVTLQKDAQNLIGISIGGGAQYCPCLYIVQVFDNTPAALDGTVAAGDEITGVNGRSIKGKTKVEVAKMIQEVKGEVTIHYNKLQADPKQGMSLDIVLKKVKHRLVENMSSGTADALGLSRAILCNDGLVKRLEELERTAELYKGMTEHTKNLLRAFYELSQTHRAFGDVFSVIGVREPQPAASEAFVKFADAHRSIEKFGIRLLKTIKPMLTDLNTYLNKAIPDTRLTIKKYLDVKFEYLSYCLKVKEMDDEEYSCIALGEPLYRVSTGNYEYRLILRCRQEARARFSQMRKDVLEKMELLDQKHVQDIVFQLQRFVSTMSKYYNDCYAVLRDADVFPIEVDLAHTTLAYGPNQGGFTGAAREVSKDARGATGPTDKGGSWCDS
UniProt P19491, residues 22-883: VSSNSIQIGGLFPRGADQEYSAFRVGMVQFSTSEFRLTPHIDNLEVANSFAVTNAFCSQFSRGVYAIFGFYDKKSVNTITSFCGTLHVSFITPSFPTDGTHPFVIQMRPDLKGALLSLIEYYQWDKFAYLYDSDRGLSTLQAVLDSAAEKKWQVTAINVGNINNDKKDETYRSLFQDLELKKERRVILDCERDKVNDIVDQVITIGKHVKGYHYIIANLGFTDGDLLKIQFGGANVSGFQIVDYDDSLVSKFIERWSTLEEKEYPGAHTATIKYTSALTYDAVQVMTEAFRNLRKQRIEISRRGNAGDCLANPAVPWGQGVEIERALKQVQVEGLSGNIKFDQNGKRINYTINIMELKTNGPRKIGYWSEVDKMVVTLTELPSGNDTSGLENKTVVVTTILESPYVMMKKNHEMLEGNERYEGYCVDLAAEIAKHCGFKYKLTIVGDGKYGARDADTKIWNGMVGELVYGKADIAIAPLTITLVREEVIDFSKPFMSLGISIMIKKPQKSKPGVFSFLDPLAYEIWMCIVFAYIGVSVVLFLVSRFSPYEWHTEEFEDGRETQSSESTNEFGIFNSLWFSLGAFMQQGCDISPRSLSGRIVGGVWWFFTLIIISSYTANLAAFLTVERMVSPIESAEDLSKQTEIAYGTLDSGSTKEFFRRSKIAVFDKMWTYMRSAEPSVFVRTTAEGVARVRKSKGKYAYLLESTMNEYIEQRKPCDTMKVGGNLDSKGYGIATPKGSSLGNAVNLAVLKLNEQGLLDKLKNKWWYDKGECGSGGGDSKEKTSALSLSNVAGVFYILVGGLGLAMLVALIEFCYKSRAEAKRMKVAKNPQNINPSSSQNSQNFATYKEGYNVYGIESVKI
UniProt Q9QZ81: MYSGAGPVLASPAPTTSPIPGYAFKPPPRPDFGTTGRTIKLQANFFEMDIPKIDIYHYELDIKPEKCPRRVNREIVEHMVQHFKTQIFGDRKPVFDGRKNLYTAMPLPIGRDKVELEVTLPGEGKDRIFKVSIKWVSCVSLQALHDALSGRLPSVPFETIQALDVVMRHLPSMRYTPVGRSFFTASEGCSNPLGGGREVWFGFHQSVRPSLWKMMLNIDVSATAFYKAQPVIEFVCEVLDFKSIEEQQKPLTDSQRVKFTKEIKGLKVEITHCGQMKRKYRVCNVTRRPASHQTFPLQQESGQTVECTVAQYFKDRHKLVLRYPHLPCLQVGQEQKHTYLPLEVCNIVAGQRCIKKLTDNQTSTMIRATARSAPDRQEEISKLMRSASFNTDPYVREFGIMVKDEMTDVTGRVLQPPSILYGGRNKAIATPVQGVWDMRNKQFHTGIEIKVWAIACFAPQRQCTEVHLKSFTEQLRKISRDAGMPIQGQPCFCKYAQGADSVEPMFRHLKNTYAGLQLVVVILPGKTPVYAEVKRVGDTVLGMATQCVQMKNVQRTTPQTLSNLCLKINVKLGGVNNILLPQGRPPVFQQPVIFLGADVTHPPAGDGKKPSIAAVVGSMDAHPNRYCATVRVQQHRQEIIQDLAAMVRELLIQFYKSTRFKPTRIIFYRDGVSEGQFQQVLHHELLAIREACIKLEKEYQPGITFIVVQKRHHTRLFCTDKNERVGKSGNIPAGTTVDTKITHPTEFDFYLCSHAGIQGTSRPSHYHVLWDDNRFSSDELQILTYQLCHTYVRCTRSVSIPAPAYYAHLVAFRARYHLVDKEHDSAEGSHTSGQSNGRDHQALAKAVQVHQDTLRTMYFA
UniProt Q9UKV8: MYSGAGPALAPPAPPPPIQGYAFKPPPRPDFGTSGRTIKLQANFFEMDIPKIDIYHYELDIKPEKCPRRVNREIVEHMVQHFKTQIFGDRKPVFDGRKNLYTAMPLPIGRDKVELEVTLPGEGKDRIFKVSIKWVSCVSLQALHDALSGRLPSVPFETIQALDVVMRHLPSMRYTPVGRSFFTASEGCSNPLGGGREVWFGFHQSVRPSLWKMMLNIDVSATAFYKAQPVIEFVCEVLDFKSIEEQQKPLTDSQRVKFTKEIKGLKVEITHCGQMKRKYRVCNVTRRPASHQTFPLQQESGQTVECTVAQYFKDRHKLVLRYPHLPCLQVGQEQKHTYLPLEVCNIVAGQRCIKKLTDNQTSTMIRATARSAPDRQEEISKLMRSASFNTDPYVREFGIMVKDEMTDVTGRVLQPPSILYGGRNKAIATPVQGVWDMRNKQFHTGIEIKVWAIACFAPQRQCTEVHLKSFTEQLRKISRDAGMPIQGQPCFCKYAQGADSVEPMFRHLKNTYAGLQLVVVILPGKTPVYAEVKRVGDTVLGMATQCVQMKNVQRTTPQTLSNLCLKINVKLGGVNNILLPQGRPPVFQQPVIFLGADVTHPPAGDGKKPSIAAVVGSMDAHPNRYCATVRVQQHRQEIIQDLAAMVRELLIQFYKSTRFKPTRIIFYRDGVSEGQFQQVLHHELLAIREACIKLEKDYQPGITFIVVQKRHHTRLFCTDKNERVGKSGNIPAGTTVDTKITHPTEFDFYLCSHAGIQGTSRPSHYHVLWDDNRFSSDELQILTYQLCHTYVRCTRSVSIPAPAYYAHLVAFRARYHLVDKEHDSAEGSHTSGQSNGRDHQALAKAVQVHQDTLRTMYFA

Assays:
His6-PICK1 = His6-PICK1 (UniProt Q9EP80); experiment: pull-down; His6-PICK1 immobilised on nickel beads, incubated 1 h at 4 °C with extract of HEK293 cells co-expressing GFP-Ago2 and Myc-GluA2 in co-IP buffer with defined [Ca2+]free of 0, 4, 8 and 16 μM; Western blot; only the target purified
FLAG-PICK1 K27A,D28A = FLAG-PICK1 K27A,D28A (UniProt Q9EP80); experiment: co-IP; anti-FLAG immunoprecipitation from transfected HEK293 cell extracts in IP buffer (0.5% Triton X-100, 150 mM NaCl, 20 mM HEPES pH 7.4), 4 °C; Western blot
FLAG-PICK1 WT = FLAG-PICK1 WT (UniProt Q9EP80); experiment: as above
FLAG-PICK1 Δ380–390 = FLAG-PICK1 Δ380–390 (UniProt Q9EP80); experiment: as above
[1] = biological target: endogenous PICK1 (rat cortical neurons) (rat (endogenous in cortical neurons)) (UniProt Q9EP80); experiment: co-IP; endogenous PICK1 immunoprecipitated (anti-PICK1, protein G-Sepharose) from DIV14 cortical neuron lysate in co-IP buffer with defined [Ca2+]free; 4 °C; Western blot
GFP-PICK1 WT = GFP-PICK1 WT (UniProt Q9EP80); experiment: co-IP; GFP-trap beads capture GFP-PICK1 from lysate of transfected cortical neurons (10 mM Tris pH 7.5, 150 mM NaCl, 0.5 mM EDTA, 0.5% Nonidet P-40), 1 h at 4 °C; basal and 10 min after NMDA-induced cLTD; Western blot
[2] = biological target: endogenous PICK1 (rat cortical neurons) (rat (endogenous in cortical neurons)) (UniProt Q9EP80); experiment: co-IP; endogenous PICK1 immunoprecipitated from DIV14 cortical neuron lysate in IP buffer; neurons unstimulated or stimulated with NMDA (3 min) with 1.8 mM or without extracellular Ca2+, harvested 0, 5, 10 or 30 min later; Western blot

Row | Substance | binding (His6-PICK1) | binding (FLAG-PICK1 K27A,D28A) | binding (FLAG-PICK1 WT) | binding (FLAG-PICK1 Δ380–390) | binding [1] | binding (GFP-PICK1 WT) | binding [2]
1 | Myc-GluA2 (from UniProt P19491 22-883) (receptor) | binds | no binding | binds | – | – | – | –
2 | endogenous Ago2 (rat cortical neurons) (from UniProt Q9QZ81 1-860) | – | – | – | – | binds | binds | binds

Continued, values first:

Row | binding (His6-PICK1) | binding (FLAG-PICK1 K27A,D28A) | binding (FLAG-PICK1 WT) | binding (FLAG-PICK1 Δ380–390) | binding [1] | binding (GFP-PICK1 WT) | binding [2] | Substance
3 | binds | binds | binds | – | – | – | – | GFP-Ago2 (from UniProt Q9UKV8 1-859)
4 | – | – | binds | binds | – | – | – | Myc-Ago2 (from UniProt Q9UKV8 1-859)
5 | – | – | – | – | binds | binds | – | endogenous GluA2 (rat cortical neurons) (from UniProt P19491 22-883) (receptor)
